Laboratory results as given in patent US20050256134A1, “Use of creatine analogues and creatine kinase modulators for the prevention and treatment of glucose metabolic disorders” (AVICENA GROUP, INC., priority 1995, published 2005).
Further values from the same series stand in other lists.

Test system: terminal cancer patients
Experiment: Phase I/II open label dose escalation study, glucose levels, 3 hour continuous infusion
Assay type: in vivo, human
Method: Cyclocreatine was tested in humans in a phase I/II open label dose escalation study. […] Cyclocreatine was administered at doses that ranged from 10 mg/Kg to 100 mg/Kg. The schedule of administration of cyclocreatine is described in Table 4.
Cohorts of 3 patients were administered drug at each dose level, via a 3 hour continuous infusion in one liter volume of saline. The first week patients received cyclocreatine once, the second week patients received cyclocreatine twice, the third week three times, the fourth week four times, the fifth week five times. On weeks six and seven, no drug was administered to allow the drug to wash out. On week eight, cyclocreatine was given five times. The study included a total of 23 patients (18 male, 5 female) with a median age of 71 years (range 54-85). The patients had different types of malignancies. Eligibility requirements included patients who have failed standard therapy or for whom no therapy was available, normal organ function, have recovered from prior therapies, probability of survival of greater than three months. Reasons for exclusion included: major surgery, life threatening concurrent illness and CNS metastasis. Blood samples were collected at baseline and 1 day before and after the last weekly drug administration on days 1, 7, 9, 14, 17, 21, 25, 28, 33, 40, 47, 49, 54, 61, and 69. Glucose levels were determined for these collected blood samples. […] Not all patients experienced a significant drop in glucose although the trend was there. FIGS. 14 and 15 illustrate graphically individual patients' glucose levels upon treatment with 60 mg/Kg or 80 mg/Kg cyclocreatine. Patient (A) at the 80 mg/Kg dose was diabetic and had many serious complications due to their disease. […] It should be noted that an insufficient number of readings was made shortly after drug administration. It is interesting to note that several patients who were diabetic or had higher glucose levels than normal did respond to cyclocreatine, onen example being illustrated in FIG. 16.

Q: Which Glucose (Patient 2, 1, 10 mg/kg, Study Day 17) does the source give for `NC1=NCCN1CC(=O)O` [cyclocreatine] here?
A: 108 mg/dL

Q: What about the Glucose (Patient 2, 1, 10 mg/kg, Study Day 21) of the same molecule?
A: 101 mg/dL

Q: And the Glucose (Patient 2, 1, 10 mg/kg, Study Day 25)?
A: 100 mg/dL

Q: And the Glucose (Patient 2, 1, 10 mg/kg, Study Day 28)?
A: 103 mg/dL

Q: And the Glucose (Patient 2, 1, 10 mg/kg, Study Day 33)?
A: 76 mg/dL

Q: And the Glucose (Patient 2, 1, 10 mg/kg, Study Day 40)?
A: 80 mg/dL

Q: What about the Glucose (Patient 2, 1, 10 mg/kg, Study Day 47) of the same molecule?
A: 86 mg/dL

Q: And the Glucose (Patient 2, 1, 10 mg/kg, Study Day 49)?
A: 93 mg/dL

Q: What about the Glucose (Patient 2, 1, 10 mg/kg, Study Day 54) of the same molecule?
A: 107 mg/dL

Q: And the Glucose (Patient 2, 1, 10 mg/kg, Study Day 61)?
A: 100 mg/dL

Q: What about the Glucose (Patient 2, 1, 10 mg/kg, Study Day 69) of the same molecule?
A: 90 mg/dL

Q: And the Glucose (Patient 2, 2, 10 mg/kg, Study Day 0)?
A: 109 mg/dL

Q: What about the Glucose (Patient 2, 2, 10 mg/kg, Study Day 1) of the same molecule?
A: 84 mg/dL

Q: What about the Glucose (Patient 2, 2, 10 mg/kg, Study Day 7) of the same molecule?
A: 83 mg/dL

Q: What about the Glucose (Patient 2, 2, 10 mg/kg, Study Day 9) of the same molecule?
A: 118 mg/dL

Q: What about the Glucose (Patient 2, 2, 10 mg/kg, Study Day 14) of the same molecule?
A: 126 mg/dL

Q: What about the Glucose (Patient 2, 2, 10 mg/kg, Study Day 21) of the same molecule?
A: 89 mg/dL

Q: And the Glucose (Patient 2, 2, 10 mg/kg, Study Day 25)?
A: 93 mg/dL

Q: And the Glucose (Patient 2, 2, 10 mg/kg, Study Day 28)?
A: 90 mg/dL

Q: And the Glucose (Patient 2, 2, 10 mg/kg, Study Day 33)?
A: 110 mg/dL

Q: And the Glucose (Patient 2, 2, 10 mg/kg, Study Day 40)?
A: 109 mg/dL

Q: What about the Glucose (Patient 2, 2, 10 mg/kg, Study Day 49) of the same molecule?
A: 191 mg/dL

Q: What about the Glucose (Patient 2, 3, 10 mg/kg, Study Day 0) of the same molecule?
A: 109 mg/dL

Q: And the Glucose (Patient 2, 3, 10 mg/kg, Study Day 1)?
A: 138 mg/dL

Q: And the Glucose (Patient 2, 3, 10 mg/kg, Study Day 7)?
A: 144 mg/dL

Q: And the Glucose (Patient 2, 3, 10 mg/kg, Study Day 9)?
A: 109 mg/dL

Q: What about the Glucose (Patient 2, 3, 10 mg/kg, Study Day 14) of the same molecule?
A: 105 mg/dL

Q: What about the Glucose (Patient 2, 3, 10 mg/kg, Study Day 17) of the same molecule?
A: 84 mg/dL

Q: What about the Glucose (Patient 2, 3, 10 mg/kg, Study Day 21) of the same molecule?
A: 225 mg/dL

Q: What about the Glucose (Patient 2, 3, 10 mg/kg, Study Day 28) of the same molecule?
A: 97 mg/dL

Q: And the Glucose (Patient 2, 3, 10 mg/kg, Study Day 33)?
A: 54 mg/dL

Q: What about the Glucose (Patient 2, 3, 10 mg/kg, Study Day 40) of the same molecule?
A: 214 mg/dL

Q: And the Glucose (Patient 2, 3, 10 mg/kg, Study Day 47)?
A: 128 mg/dL

Q: And the Glucose (Patient 2, 3, 10 mg/kg, Study Day 49)?
A: 223 mg/dL

Q: What about the Glucose (Patient 2, 3, 10 mg/kg, Study Day 54) of the same molecule?
A: 56 mg/dL

Q: And the Glucose (Patient 2, 3, 10 mg/kg, Study Day 61)?
A: 171 mg/dL

Q: What about the Glucose (Patient 2, 3, 10 mg/kg, Study Day 69) of the same molecule?
A: 335 mg/dL

Q: What about the Glucose (Patient 2, 4, 20 mg/Kg, Study Day 0) of the same molecule?
A: 151 mg/dL

Q: And the Glucose (Patient 2, 4, 20 mg/Kg, Study Day 1)?
A: 232 mg/dL

Q: What about the Glucose (Patient 2, 4, 20 mg/Kg, Study Day 7) of the same molecule?
A: 80 mg/dL

Q: And the Glucose (Patient 2, 4, 20 mg/Kg, Study Day 14)?
A: 181 mg/dL

Q: And the Glucose (Patient 2, 4, 20 mg/Kg, Study Day 21)?
A: 180 mg/dL

Q: And the Glucose (Patient 2, 5, 20 mg/Kg, Study Day 0)?
A: 77 mg/dL

Q: And the Glucose (Patient 2, 5, 20 mg/Kg, Study Day 1)?
A: 96 mg/dL

Q: What about the Glucose (Patient 2, 5, 20 mg/Kg, Study Day 7) of the same molecule?
A: 96 mg/dL

Q: And the Glucose (Patient 2, 5, 20 mg/Kg, Study Day 9)?
A: 104 mg/dL

Q: And the Glucose (Patient 2, 5, 20 mg/Kg, Study Day 14)?
A: 99 mg/dL

Q: And the Glucose (Patient 2, 5, 20 mg/Kg, Study Day 17)?
A: 66 mg/dL

Q: And the Glucose (Patient 2, 5, 20 mg/Kg, Study Day 21)?
A: 84 mg/dL

Q: What about the Glucose (Patient 2, 5, 20 mg/Kg, Study Day 25) of the same molecule?
A: 89 mg/dL

Q: And the Glucose (Patient 2, 5, 20 mg/Kg, Study Day 28)?
A: 67 mg/dL

Q: What about the Glucose (Patient 2, 5, 20 mg/Kg, Study Day 33) of the same molecule?
A: 77 mg/dL

Q: And the Glucose (Patient 2, 5, 20 mg/Kg, Study Day 40)?
A: 106 mg/dL

Q: What about the Glucose (Patient 2, 5, 20 mg/Kg, Study Day 47) of the same molecule?
A: 86 mg/dL

Q: What about the Glucose (Patient 2, 5, 20 mg/Kg, Study Day 54) of the same molecule?
A: 91 mg/dL

Q: What about the Glucose (Patient 2, 5, 20 mg/Kg, Study Day 61) of the same molecule?
A: 98 mg/dL

Q: What about the Glucose (Patient 2, 5, 20 mg/Kg, Study Day 69) of the same molecule?
A: 77 mg/dL

Q: What about the Glucose (Patient 2, 6, 20 mg/Kg, Study Day 0) of the same molecule?
A: 84 mg/dL

Q: And the Glucose (Patient 2, 6, 20 mg/Kg, Study Day 1)?
A: 121 mg/dL

Q: And the Glucose (Patient 2, 6, 20 mg/Kg, Study Day 7)?
A: 137 mg/dL

Q: And the Glucose (Patient 2, 6, 20 mg/Kg, Study Day 9)?
A: 131 mg/dL

Q: What about the Glucose (Patient 2, 6, 20 mg/Kg, Study Day 14) of the same molecule?
A: 138 mg/dL

Q: What about the Glucose (Patient 2, 6, 20 mg/Kg, Study Day 17) of the same molecule?
A: 93 mg/dL

Q: And the Glucose (Patient 2, 6, 20 mg/Kg, Study Day 21)?
A: 139 mg/dL

Q: What about the Glucose (Patient 2, 6, 20 mg/Kg, Study Day 25) of the same molecule?
A: 102 mg/dL

Q: What about the Glucose (Patient 2, 6, 20 mg/Kg, Study Day 28) of the same molecule?
A: 128 mg/dL

Q: What about the Glucose (Patient 2, 6, 20 mg/Kg, Study Day 33) of the same molecule?
A: 94 mg/dL

Q: What about the Glucose (Patient 2, 6, 20 mg/Kg, Study Day 40) of the same molecule?
A: 99 mg/dL

Q: What about the Glucose (Patient 2, 6, 20 mg/Kg, Study Day 47) of the same molecule?
A: 99 mg/dL

Q: And the Glucose (Patient 2, 10 mg/kg, Study Day 0)?
A: 122 mg/dL

Q: And the Glucose (Patient 2, 10 mg/kg, Study Day 7)?
A: 119 mg/dL

Q: What about the Glucose (Patient 2, 10 mg/kg, Study Day 9) of the same molecule?
A: 115 mg/dL

Q: And the Glucose (Patient 2, 10 mg/kg, Study Day 14)?
A: 126 mg/dL

Q: What about the Glucose (Patient 2, 10 mg/kg, Study Day 21) of the same molecule?
A: 223 mg/dL

Q: And the Glucose (Patient 2, 10 mg/kg, Study Day 25)?
A: 141 mg/dL

Q: What about the Glucose (Patient 2, 10 mg/kg, Study Day 28) of the same molecule?
A: 59 mg/dL

Q: And the Glucose (Patient 2, 10 mg/kg, Study Day 33)?
A: 97 mg/dL

Q: What about the Glucose (Patient 2, 10 mg/kg, Study Day 40) of the same molecule?
A: 89 mg/dL

Q: What about the Glucose (Patient 2, 10 mg/kg, Study Day 47) of the same molecule?
A: 117 mg/dL

Q: What about the Glucose (Patient 2, 10 mg/kg, Study Day 54) of the same molecule?
A: 103 mg/dL

Q: And the Glucose (Patient 2, 10 mg/kg, Study Day 61)?
A: 128 mg/dL

Q: And the Glucose (Patient 2, 10 mg/kg, Study Day 69)?
A: 124 mg/dL

Q: What about the Glucose (Patient 3, 10 mg/kg, Study Day 0) of the same molecule?
A: 121 mg/dL

Q: What about the Glucose (Patient 3, 10 mg/kg, Study Day 1) of the same molecule?
A: 125 mg/dL

Q: And the Glucose (Patient 3, 10 mg/kg, Study Day 7)?
A: 77 mg/dL

Q: And the Glucose (Patient 3, 10 mg/kg, Study Day 9)?
A: 116 mg/dL

Q: What about the Glucose (Patient 3, 10 mg/kg, Study Day 17) of the same molecule?
A: 72 mg/dL

Q: And the Glucose (Patient 3, 10 mg/kg, Study Day 21)?
A: 108 mg/dL

Q: What about the Glucose (Patient 3, 10 mg/kg, Study Day 25) of the same molecule?
A: 96 mg/dL

Q: And the Glucose (Patient 3, 10 mg/kg, Study Day 28)?
A: 70 mg/dL

Q: And the Glucose (Patient 3, 10 mg/kg, Study Day 33)?
A: 94 mg/dL

Q: And the Glucose (Patient 3, 10 mg/kg, Study Day 40)?
A: 98 mg/dL

Q: And the Glucose (Patient 3, 10 mg/kg, Study Day 47)?
A: 95 mg/dL

Q: And the Glucose (Patient 3, 10 mg/kg, Study Day 54)?
A: 85 mg/dL

Q: What about the Glucose (Patient 3, 10 mg/kg, Study Day 69) of the same molecule?
A: 104 mg/dL

Q: What about the Glucose (Patient 4, 20 mg/Kg, Study Day 0) of the same molecule?
A: 84 mg/dL

Q: And the Glucose (Patient 4, 20 mg/Kg, Study Day 1)?
A: 77 mg/dL

Q: And the Glucose (Patient 4, 20 mg/Kg, Study Day 7)?
A: 85 mg/dL
